Assay results as given in PMC11842806, “Molecular basis of foreign DNA recognition by BREX anti-phage immunity system” (Nature Communications, 2025).
For some assays here: Negatives hold for the conditions tested. Tags and fusion partners may be left off the protein sequences shown. A weaker result is weaker than the reference pair of the same experiment. For some assays here: Construct, isoform or probe ends are uncertain for at least one entry.

Experiments:
[1] = biological target: T1, BrxL (Escherichia coli HS) (UniProt P0DUG1); experiment: EMSA; conditions: bound, affinity lower than previously reported; EMSA: 20 nM Cy5-DNA, 0.5x TBE pH 8.0, 35 mM NaCl, 5% glycerol, +/-0.5 mM SAM or SAH, 30 min, room temperature; recombinant protein; protein details: N-His6; label: 5'-Cy5 on strand 1
T1 sequence (looked up, limits assumed): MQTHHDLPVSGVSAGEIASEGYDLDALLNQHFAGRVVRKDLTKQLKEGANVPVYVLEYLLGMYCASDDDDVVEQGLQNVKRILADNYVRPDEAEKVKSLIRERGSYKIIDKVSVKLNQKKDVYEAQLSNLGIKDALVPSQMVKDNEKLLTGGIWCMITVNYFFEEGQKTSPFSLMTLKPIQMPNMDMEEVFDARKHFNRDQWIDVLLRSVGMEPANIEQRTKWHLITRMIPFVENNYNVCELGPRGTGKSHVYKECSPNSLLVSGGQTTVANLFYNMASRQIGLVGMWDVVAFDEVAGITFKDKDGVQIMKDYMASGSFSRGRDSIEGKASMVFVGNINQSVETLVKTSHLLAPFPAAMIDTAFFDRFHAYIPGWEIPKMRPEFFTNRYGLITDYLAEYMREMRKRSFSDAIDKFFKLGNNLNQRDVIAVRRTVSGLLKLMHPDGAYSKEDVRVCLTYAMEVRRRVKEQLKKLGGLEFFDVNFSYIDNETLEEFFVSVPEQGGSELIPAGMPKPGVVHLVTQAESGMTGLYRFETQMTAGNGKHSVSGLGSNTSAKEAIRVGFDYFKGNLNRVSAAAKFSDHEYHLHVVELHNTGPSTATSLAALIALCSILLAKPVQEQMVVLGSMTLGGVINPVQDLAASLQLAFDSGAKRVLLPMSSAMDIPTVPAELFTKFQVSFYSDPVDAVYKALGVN

[2] = biological target: T2, BrxX (PglX) (Escherichia coli HS) (UniProt P0DUF9); experiment: EMSA; conditions: EMSA: 20 nM Cy5-DNA, 0.5x TBE pH 8.0, 35 mM NaCl, 5% glycerol, +/-0.5 mM SAM or SAH, 30 min, room temperature, recombinant protein, residues 1-1205, protein details: N-His6
T2 sequence (looked up): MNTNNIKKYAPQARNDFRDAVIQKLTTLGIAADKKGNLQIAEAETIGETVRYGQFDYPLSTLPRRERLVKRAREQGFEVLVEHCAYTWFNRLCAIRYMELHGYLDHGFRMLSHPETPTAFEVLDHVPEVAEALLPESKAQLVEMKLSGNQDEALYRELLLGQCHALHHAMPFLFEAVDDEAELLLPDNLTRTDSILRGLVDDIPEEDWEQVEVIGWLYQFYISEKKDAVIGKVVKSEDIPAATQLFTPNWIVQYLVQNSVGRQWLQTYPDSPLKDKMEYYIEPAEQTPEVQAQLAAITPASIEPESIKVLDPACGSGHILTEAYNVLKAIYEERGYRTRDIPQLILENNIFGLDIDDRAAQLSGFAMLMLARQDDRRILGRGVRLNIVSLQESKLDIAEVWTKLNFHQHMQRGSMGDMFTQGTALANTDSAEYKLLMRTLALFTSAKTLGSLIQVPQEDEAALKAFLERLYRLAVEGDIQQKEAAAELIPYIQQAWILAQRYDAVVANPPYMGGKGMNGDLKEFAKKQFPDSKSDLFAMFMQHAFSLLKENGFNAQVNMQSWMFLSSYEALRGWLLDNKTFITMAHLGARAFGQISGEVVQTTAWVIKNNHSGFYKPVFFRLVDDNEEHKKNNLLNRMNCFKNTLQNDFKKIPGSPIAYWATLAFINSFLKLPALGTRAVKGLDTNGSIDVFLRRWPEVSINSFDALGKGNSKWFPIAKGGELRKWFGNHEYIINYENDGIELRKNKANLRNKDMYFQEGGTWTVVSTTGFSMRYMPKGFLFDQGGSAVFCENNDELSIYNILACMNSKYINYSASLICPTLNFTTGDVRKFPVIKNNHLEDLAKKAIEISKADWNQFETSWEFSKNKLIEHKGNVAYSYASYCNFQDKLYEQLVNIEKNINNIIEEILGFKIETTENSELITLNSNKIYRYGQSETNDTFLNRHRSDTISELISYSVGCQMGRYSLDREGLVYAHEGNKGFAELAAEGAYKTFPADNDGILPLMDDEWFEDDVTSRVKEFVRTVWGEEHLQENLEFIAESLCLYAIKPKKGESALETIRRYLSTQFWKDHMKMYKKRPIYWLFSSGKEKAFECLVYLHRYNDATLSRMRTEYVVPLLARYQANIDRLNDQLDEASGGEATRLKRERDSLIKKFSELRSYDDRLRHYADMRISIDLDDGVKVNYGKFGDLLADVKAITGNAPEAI

[3] = biological target: T2, BrxX (PglX) (Escherichia coli HS); experiment: BLI; conditions: BLI: 20 mM Tris-HCl pH 8.0, 100 mM NaCl, 0.05 mg/mL BSA, 0.02% Tween-20, +/-0.5 mM SAM, 30 C, recombinant protein, residues 1-1205, protein details: N-His6, label: 5'-biotin on strand 1
[4] = with and without 0.5 mM SAM, no clear site preference, label: 5'-Cy5, single-stranded DNA
[5] = with and without 0.5 mM SAM, label: 5'-Cy5 on strand 1

Does “AGTCAGTGGTAAGGTCAGGAATGAGTCAGTTGGCAAGTCAGGA (double strand) [43 bp, 1 BREX site]” bind [1]?
Result: binds more weakly

Does “AGTCAGTAGTGAGGTCAGGAATGAGTCAGTCTCACTGTCAGGA [43 nt ssDNA scrambled]” bind [2, 4]?
Result: binds

Does “AGTCAAGTCAGTGGTAAGGTCAGGACAGGA (double strand) [30 bp BREX]” bind [2, 5]?
Result: binds more weakly

Does “TCAGTAGTCAAGTCAGTGGTAAGGTCAGGACAGGAGTCAG (double strand) [40 bp methylated BREX]” bind ([2]; 0.5 mM SAH, N6-methyladenine at fifth base of GGTAAG (strand 1 position 22), label: 5'-Cy5 on strand 1)?
Result: binds more weakly

Does “TCAGTAGTCAAGTCAGTGGTAAGGTCAGGACAGGAGTCAG (double strand) [40 bp methylated BREX]” bind ([2]; 0.5 mM SAM, N6-methyladenine at fifth base of GGTAAG (strand 1 position 22), label: 5'-Cy5 on strand 1)?
Result: binds more weakly

Does “TCAGTAGTCAAGTCAGTGGTAAGGTCAGGACAGGAGTCAG (double strand) [40 bp methylated BREX]” bind ([2]; no cofactor, N6-methyladenine at fifth base of GGTAAG (strand 1 position 22), label: 5'-Cy5 on strand 1)?
Result: binds more weakly

Does “AGTCAGTCCCCCCGTCAGGA (double strand) [20 bp polyC, biotin]” bind ([3]; Kd only in figure)?
Result: binds more weakly

Does “TCAGTAGTCAAGTCAGTCCCCCCGTCAGGACAGGAGTCAG (double strand) [40 bp polyC, biotin]” bind ([3]; SAM, heterogeneous binding, no accurate Kd)?
Result: binds more weakly

Does “AGTCAGTGGTAAGGTCAGGA (double strand) [20 bp BREX]” bind [2, 5]?
Result: binds more weakly

Does “AGTCAGTGGTAAGGTCAGGAATGAGTCAGTTGGCAAGTCAGGA [43 nt ssDNA, 1 BREX site]” bind [2, 4]?
Result: binds

How did the Kd ([2]; no cofactor, text: low-affinity non-specific binding, label: 5'-Cy5 on strand 1) turn out when “AGTCAGTAGTGAGGTCAGGAATGAGTCAGTCTCACTGTCAGGA (double strand) [43 bp scrambled]” was run?
Its Kd is over 1000 nM.

Does “AGTCAGTAGTGAGGTCAGGAATGAGTCAGTCTCACTGTCAGGA (double strand) [43 bp scrambled]” bind [1]?
Result: binds more weakly

Does “TCAGTAGTCAAGTCAGTGGTAAGGTCAGGACAGGAGTCAG (double strand) [40 bp BREX]” bind ([2]; 1.5-fold excess Ocr dimer over BrxX, added after DNA, DNA released, label: 5'-Cy5 on strand 1)?
Result: no binding

Does “TCAGTAGTCAAGTCAGTGGTAAGGTCAGGACAGGAGTCAG (double strand) [40 bp BREX]” bind ([2]; equimolar Ocr dimer preincubated with BrxX, label: 5'-Cy5 on strand 1)?
Result: no binding
